# Measurements: patent publication US20110086770A1
# Results are given in words; binding and its absence hold for the method and conditions named. Some entries that bind do so weakly or less than the wild type. Where a sequence is shown, tags or fusion partners need not be part of it.
# T1: recombinant mouse IL-23R/Fc chimera (R&D Systems) (mouse) (UniProt Q8K4B4)
# T1 sequence (looked up): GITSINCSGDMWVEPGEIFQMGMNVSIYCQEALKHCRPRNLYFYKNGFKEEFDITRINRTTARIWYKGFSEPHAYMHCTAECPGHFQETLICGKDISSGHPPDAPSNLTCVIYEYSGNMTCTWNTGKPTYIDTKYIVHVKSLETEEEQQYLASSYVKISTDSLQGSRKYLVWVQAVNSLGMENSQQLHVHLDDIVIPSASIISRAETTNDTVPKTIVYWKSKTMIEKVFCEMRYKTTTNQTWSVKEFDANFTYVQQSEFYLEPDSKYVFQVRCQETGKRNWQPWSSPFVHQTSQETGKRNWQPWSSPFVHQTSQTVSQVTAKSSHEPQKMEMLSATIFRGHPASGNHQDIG
# B1: 105-106-6F1 (phage-displayed mouse TN CTLD clone) (designed binder)
# chain: ALQTVCLKGTKVNLKCLLAFTQPKTFHEASEDCISQGGTLGTPQSELENEALFEYARHSVGNDANIWLGLNPGPGTRWWVDMTGGLLAYKNWETEITTQPDGGRSKSGENCAALSGAANGKWFDKRCRDQLPYICQFAIV
# Target: T1, recombinant mouse IL-23R/Fc chimera (R&D Systems) (mouse)
# Assay: phage ELISA on mouse IL-23R/Fc
binder,measurement,value
B1,binding,binds
